Results on 2 compounds are retold here after patent EP0712040B1, “Method for processing silver halide photographic light-sensitive material” (KONICA CORPORATION, priority 1994, dated 1996).

This data set in a line: Yellow stain at unexposed area of processed film after dark storage (Preparation Example 2). The note with it: additive in stabilizer 2 g/l (Formalin 5 ml/l), stored in dark 10 days at 75°C, RH 10%, difference to before storage.

As for `OCNc1nc(NCO)nc(NCO)n1` [F-3-1, Trimethylolmelamine], the Yellow stain density came to 0.03.

As to Dimethylolguanidine [F-4-1], the Yellow stain density was 0.03.
